# Data from PubChem BioAssay AID1794845 (National Center for Advancing Translational Sciences (NCATS), 2023).
# Protein sequences, listed by entry. Tags and fused reporters are not part of them. Lines headed by an entry give the natural chain unless they say otherwise; changes in a name come on top.
# UniProt C7C422: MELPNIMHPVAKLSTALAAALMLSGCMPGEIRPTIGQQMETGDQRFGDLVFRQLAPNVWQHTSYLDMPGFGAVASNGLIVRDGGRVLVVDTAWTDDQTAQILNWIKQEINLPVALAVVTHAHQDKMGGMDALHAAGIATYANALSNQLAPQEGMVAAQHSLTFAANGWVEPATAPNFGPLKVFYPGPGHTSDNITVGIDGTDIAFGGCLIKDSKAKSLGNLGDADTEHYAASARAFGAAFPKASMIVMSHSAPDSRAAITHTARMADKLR
# Fewer than 10 of roughly 6,900 compounds were called active. Calls follow the shape of the dose curve; as a rule, active = well fitted curve in the direction sought with a large enough effect; inconclusive = small, poorly fitted or top-dose-only effect, or another doubt; inactive = no such curve, though single readings can be large or run the other way. The list shows a part of the results.
# Target: Metallo-beta-lactamase type 2 (Klebsiella pneumoniae) (UniProt C7C422)
# Experiment: qHTS to identify inhibitors of the New Delhi Metallo-beta-lactamase (NDM): primary screen against the NCATS Gemini Collection; also: % of control where 0% means no effect
# Conditions: NDM-1 enzyme, meropenem hydrolysis, absorbance 300 nm; at 38.4 µM (top of the series) unless noted
# Procedure, shortened: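 Meropenem hydrolysis (50 uM final) by 2 nM NDM-1 read as 300 nm absorbance after 30 min, following >30 min compound–enzyme preincubation in HEPES pH 7.0 with 1 uM ZnSO4 and 0.01% Tween20.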
row,Compound,activity % (negative = inhibition)
1,COC(=O)[C@@H](C)NC(=O)[C@H]1CN(C(=O)c2cccnc2)CCN1S(=O)(=O)c1ccccc1,inactive: -0.332%
2,CC(=O)N1CCC(N[C@H]2C[C@@H](Cc3cc(CN(C)C)on3)C2(C)C)CC1,inactive: -1.28% [at 57.5 µM]
3,Cc1cccc(-c2noc([C@@H]3Cc4nc[nH]c4CN3C(=O)COCC(=O)O)n2)c1,inactive: 30.1% [at 57.5 µM]
4,CCN(Cc1nc(C)no1)C(=O)c1cc(COc2cccc(F)c2)[nH]n1,inactive: 0.559%
5,COCCn1c(C)cnc1CCNC(=O)c1cc(C)nn1C,inactive: 45%
6,COc1cccc(-c2cccc(CN3CCCC3C(=O)N3CCCCC3)c2)c1 (configuration not stated),inactive: 0.421%
7,Cc1nn(C)c(=O)n1C1CCN(S(=O)(=O)c2cccs2)CC1,inactive: -4.43%
8,C#CCNC(=O)C1CCc2nnc(C3CCN(C(=O)Nc4ccc(Cl)cc4)CC3)n21 (configuration not stated),inactive: -1.28%
9,Cc1nncn1C1CN(S(=O)(=O)c2ccc3c(c2)CCC3)C1,inactive: 5.53%
10,CC(C)CN1CCN(C(=O)c2ccc3c(c2)N(S(C)(=O)=O)CC3)CC1,inactive: -6.98%
11,CCNC(=O)N1CCC(Cc2ccc(C(=O)O)cc2)CC1,inactive: 23.3%
12,Cc1noc(-c2ccc(C(C)(C)C)cc2)c1C(=O)NCCOc1ccccc1,inactive: 9.89%
13,CCCn1c(C)cnc1C1CCN(S(=O)(=O)c2cn(C)cn2)C1 (configuration not stated),inactive: -10.2%
14,CN(C)C[C@@H]1CN(c2ccncn2)C[C@H]1NC(=O)Cc1cccs1,inactive: 9.72%
15,CCc1nc2c(=O)n(CC(=O)NC(C)c3ccc(F)cc3)nc(C)c2s1 (configuration not stated),inactive: 5.59%
16,Cc1ccc2nc(CN(C)C(=O)C3CCC(=O)N(C4CCCCCC4)C3)[nH]c2c1 (configuration not stated),inactive: -4.43%
17,Cc1noc(C)c1C(=O)N1CCC2(CC1)C(=O)NCN2C(=O)Cc1ccccc1,inactive: 0.504%
18,c1ccc(-n2cncn2)c(Cn2ccnc2-c2cc3n(n2)CCCNC3)c1,inactive: 22.1%
19,O=C(N[C@@H]1CN(c2ccncn2)C[C@H]1CO)C1CCCC1,inactive: 1.33%
20,CCc1cc(C(=O)N2CCC(n3nccc3NC(=O)CCOc3ccccc3)CC2)no1,inactive: -0.148%
21,C[S+](=O)([O-])N1CCn2ncc(C(=O)NCc3ccc(Cl)nc3)c2C1,inactive: -3.12%

# Reprinted at random: 2 entries already listed, in no set order.
row,Compound,activity % (negative = inhibition)
5,COCCn1c(C)cnc1CCNC(=O)c1cc(C)nn1C,inactive: 45%
21,C[S+](=O)([O-])N1CCn2ncc(C(=O)NCc3ccc(Cl)nc3)c2C1,inactive: -3.12%

# Next results.

row,Compound,activity % (negative = inhibition)
1,CC(C)CN1CC(C(=O)NCc2nc(-c3ccccc3)no2)CC1=O (configuration not stated),inactive: 4.18%
2,CC(C)NC(=O)N[C@H]1CCN(C(=O)c2cnccn2)[C@@H]1C(=O)N[C@@H](CCCNC(=O)c1cnccn1)C(N)=O,inactive: 8.17%
3,O=C(c1csc(Cc2ccccc2)n1)N1CCC2(CCCNC2)C1 (configuration not stated),inactive: 43%
4,Cc1ccc(-c2ccccc2CN2CCN(C(=O)c3ccc(C(F)(F)F)cc3)CC2)cc1Cl,inactive: 6.38%
5,NC(=O)[C@H](Cc1cccs1)NC(=O)[C@@H]1C[C@@H](NC(=O)c2cnccn2)CCN1C(=O)COCC(=O)O,inactive: 6.79%
6,COCCNC(=S)N[C@H]1C[C@H]2C(=O)NC[C@@H](CCC(=O)NCc3ccccc3)N2C1,inactive: 7.63% [at 57.5 µM]
7,CSCC(=O)N1CC[C@H](NC(=O)Nc2cccc(SC)c2)[C@H]1C(=O)N[C@H](Cc1ccccc1)C(N)=O,inactive: 4.18%
8,CN(CCc1ccccn1)[C@@H]1[C@H](O)[C@H](CO)O[C@@H]1CNC(=O)c1ccc(C(F)(F)F)cc1,inactive: 6.63%
9,Cc1ccc(NC(=O)N2C[C@@H](F)C[C@H]2C(=O)N2CCCCC2)cc1F,inactive: -4.55%
10,CC(C)CNC(=O)C1CC(c2ccccc2F)=NO1 (configuration not stated),inactive: -2.02%
11,C=CCNC(=O)N[C@H]1[C@H](O)[C@@H](N2CCC(Cc3ccccc3)CC2)[C@@H]2OC[C@H]1O2,inactive: -3.65% [at 57.5 µM]
12,C[C@@H](NC(=O)C1=C[C@@H](NS(=O)(=O)c2cccc(C(F)(F)F)c2)[C@@H](O)[C@H](O)C1)C(N)=O,inactive: 4.92%
13,CCCS(=O)(=O)N1CCCC(OCc2noc(C3CCOCC3)n2)C1 (configuration not stated),inactive: -2.91%
14,COc1ccc(CNC(=O)c2cc3c(s2)CN(C2CC2)C3)cc1OC,inactive: 19.4%
15,COC[C@H]1NC(=O)CC[C@H]1C(=O)O,inactive: -0.13%
16,O=C(c1ccccc1C(F)(F)F)N1CCc2nc3cc[nH]n3c(=O)c2C1,inactive: 5.52%
17,CCCN(CC1CCOC1)S(=O)(=O)c1cc(F)ccc1C (configuration not stated),inactive: 5.17%
18,Cc1nc(C(=O)N2CC[C@H](NS(=O)(=O)c3cn(C)cn3)C[C@H]2C(=O)N[C@H](Cc2ccccc2)C(N)=O)cs1,inactive: 28.5%
19,CNc1ccc(C(=O)NCCCc2c(C)noc2C)cn1,inactive: 9.78%
20,Cc1nnc(-c2cc(-c3ccc(CO)cc3)ccn2)n1Cc1ccccc1,inactive: 1.09% [at 57.5 µM]
21,Cc1cccc2c1nc1n2[C@@H](CNCc2nc3ccccc3n2C)COC1,inactive: -2.44% [at 57.5 µM]
